Binding data for one molecule are collected here from PMC10267116, “Structural and functional analysis of a plant nucleolar RNA chaperone-like protein”.

The assay concerns the target T1, NUCLEOLAR RNA CHAPERONE-LIKE 1 (NURC1) full-length protein (A. thaliana), Q9LZ65.
T1 chain: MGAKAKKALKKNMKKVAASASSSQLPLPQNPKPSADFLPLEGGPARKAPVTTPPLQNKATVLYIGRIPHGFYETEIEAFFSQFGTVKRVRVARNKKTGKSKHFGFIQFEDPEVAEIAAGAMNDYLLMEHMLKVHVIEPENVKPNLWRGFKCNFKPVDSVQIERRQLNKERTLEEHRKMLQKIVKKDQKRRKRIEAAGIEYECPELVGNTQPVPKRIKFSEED
In words: SEC-MALLS; Superdex 75 Increase 10/300 GL, 0.5 ml/min; running buffer HNa2PO4 pH 7.5, 300 mM NaCl, 5% glycerol, 1 mM DTT; loading concentration in Supplementary Table S3; both purified. The following applies: remark: other sources report otherwise.

Results are given in words; binding and its absence hold for the method and conditions named.

B1: NUCLEOLAR RNA CHAPERONE-LIKE 1 (NURC1) full-length protein, Q9LZ65 1-222 (protein)
chain: T1 chain
As to B1, the binding entry was “no binding”.
